Results on one compound are retold here after ChEMBL document CHEMBL4219073, “Development of selective inhibitors for the treatment of rheumatoid arthritis: (R)-3-(3-(Methyl(7H-pyrrolo[2,3-d]pyrimidin-4-yl)amino)pyrrolidin-1-yl)-3-oxopropanenitrile as a JAK1-selective inhibitor” (Bioorg Med Chem, 2018).

The structures appear in SMILES notation.

A short description of data set [1]: in vivo. The settings on record: rat, po, 10 mg/kg.
Data set [2] is described as follows: in vivo. The settings on record: dog, po, 5 mg/kg.
A short description of data set [3]: in vivo. The following applies: rat, po, 10 mg/kg. This is another data set of the same source.
Data set [4] in a line: in vivo. The following applies: rat, po, 10 mg/kg. The source holds these as a separate data set.

For the compound `C[C@@H]1CCN(C(=O)CC#N)C[C@@H]1N(C)c1ncnc2[nH]ccc12` [TOFACITINIB], the highest level in the data set “in vivo [1]” (Cmax) was 2400 ng/mL. The area under the curve AUC(0-inf) in the data set “in vivo [2]” stood at 2300 ng·h/mL; in the data set “in vivo [4]”, 2800 ng·h/mL. Moreover, the Tmax in “in vivo [3]” was 18.6 min.
